In patent US20150017638A1, “METHODS FOR ASSESSING RISK FOR CANCER USING BIOMARKERS” (THE TRUSTEES OF THE UNIVERSITY OF PENNSYLVANIA, priority 2012, published 2015):
At least one structure is not confirmed: it was looked up by name or label, or the drawing left a doubt.

Key:
[1] = tested on: Primary cell lines derived from PanIN mice (sorted YFP+ cells); experiment: In vitro exposure of PanIN-derived primary cell lines to cerulein, dexamethasone, TGF-b; type: cell-based, mouse; settings: 48 hr
Description: Cells destined for transcriptional analysis were sorted into either RLT buffer (QIAGEN) or Trizol LS Reagent (Invitrogen). RNA was extracted from samples >1,000 cells using the RNEasy kit (QIAGEN). RNA from samples with fewer cells, including all sorted blood cell samples, was isolated using the PicoPure Extraction kit as directed (Arcturus). qPCR was performed as previously described (Zong et al., 2009), and primary sequences used are listed in Table 1, below. Relative expression was determined after adjusting for GAPDH. Genomic DNA was extracted from sorted CPCs pooled from three tumor-bearing mice using phenol or DNeasy kit (QIAGEN).
Primary cell lines were derived from PanIN mice after sorting pancreas single-cell suspensions for YFP^+ cells. Sorted YFP^+ cells were then placed in six-well plates in pancreatic ductal cell media (Schreiber et al., 2004) and passaged at 80% confluence, Cells were transferred to multiple 6-well plates (250,000 cells per well) in pancreatic ductal cell media containing DMSO vehicle, cerulein (100 nM, Sigma), dexamethasone (Dex, 1 mM, Sigma), TGF-b (5 ng/ml, Peprotech), or Dex (1 mM) and TGF-b (5 ng/ml). Morphology was photodocumented at 6 hr, 24 hr, and 48 hr after treatment using an inverted microscope. After 48 hr of exposure, cells were counted and RNA isolated, cDNA synthesized, and qPCR performed as described above.

PKCY PanIN mice = experiment: Dexamethasone treatment of 10-week-old PKCY PanIN mice; type: in vivo, mouse; settings: for circulating pancreatic cell (CPC) number: 10-week-old PKCY PanIN mice, vs vehicle-treated controls (p=0.029, n=6); for circulating pancreatic cell (CPC) number / PanIN lesions and ADMIs in pancreas: 10 mg/kg

## C[C@@H]1C[C@H]2[C@@H]3CCC4=CC(=O)C=C[C@]4(C)[C@@]3(F)[C@@H](O)C[C@]2(C)[C@@]1(O)C(=O)CO [dexamethasone]
[1]; cerulein 100 nM, Dex 1 mM, triplicate
  proliferation: no effect on proliferation
[1]; cerulein 100 nM, dexamethasone 1 mM, TGF-b 5 ng/ml, vs DMSO vehicle
  cell morphology: identical morphology as vehicle-treated cells
[1]; Dex 1 mM added to TGF-b 5 ng/ml
  rescue of TGF-b-induced fibroblast-like morphology: not rescued
PKCY PanIN mice; 10 mg/kg daily for 7 days
  circulating pancreatic cell (CPC) number: loss of YFP+ cells from the blood
PKCY PanIN mice; 10 mg/kg daily for 7 days, listed as Dex
  circulating pancreatic cell (CPC) number: significant drop in CPC number
PKCY PanIN mice; 10-week-old PKCY mice, 10 mg/kg daily for 7 days, n=6 each group
  inflammation in pancreas: marked reduction in inflammation
PKCY PanIN mice; 10-week-old PKCY mice, 10 mg/kg daily for 7 days
  PanIN lesions and ADMIs in pancreas: almost complete elimination of PanIN lesions
PKCY PanIN mice; 10-week-old PKCY mice, 10 mg/kg daily for 7 days, listed as Dex
  PanIN lesions and ADMIs in pancreas: almost undetectable
PKCY PanIN mice; 10-week-old PanIN mice, 7 days of treatment, analyzed 24 hr after last injection
  EMT (YFP+Zeb1+ cells) in pancreas: not in Dex-treated animals
PKCY PanIN mice; control animals
  pancreatic histology: no effect on pancreatic histology
